# Assay results from PubChem BioAssay AID624349 (ICCB-Longwood Screening Facility, Harvard Medical School, 2012).
# Values joined by “and” are separate entries in the source; they are usually repeats but may differ in a detail not shown here. Equal entries are not always repeated. The list shows a part of the results.
# Assay: liver-stage malaria parasite growth inhibition, primary screen, cell-based, HepG2, luciferase luminescence, HepG2 viability (AID 624349);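 further: 100% = mean of DMSO negative control wells on the same plate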
# Conditions: P. berghei liver stage in HepG2, luciferase luminescence; measured here: HepG2 viability without parasites; concentration not given here
row,SMILES,viability
1,CN(CCCl)CCCl,70.5% and 68.2%
